These are yes or no findings as the source states them, for the method shown. In cells and extracts the contact can be indirect. Some entries that bind do so weakly or less than the wild type.

By UniProt entry, the sequences of proteins in these tests, tags left out.
UniProt Q62940: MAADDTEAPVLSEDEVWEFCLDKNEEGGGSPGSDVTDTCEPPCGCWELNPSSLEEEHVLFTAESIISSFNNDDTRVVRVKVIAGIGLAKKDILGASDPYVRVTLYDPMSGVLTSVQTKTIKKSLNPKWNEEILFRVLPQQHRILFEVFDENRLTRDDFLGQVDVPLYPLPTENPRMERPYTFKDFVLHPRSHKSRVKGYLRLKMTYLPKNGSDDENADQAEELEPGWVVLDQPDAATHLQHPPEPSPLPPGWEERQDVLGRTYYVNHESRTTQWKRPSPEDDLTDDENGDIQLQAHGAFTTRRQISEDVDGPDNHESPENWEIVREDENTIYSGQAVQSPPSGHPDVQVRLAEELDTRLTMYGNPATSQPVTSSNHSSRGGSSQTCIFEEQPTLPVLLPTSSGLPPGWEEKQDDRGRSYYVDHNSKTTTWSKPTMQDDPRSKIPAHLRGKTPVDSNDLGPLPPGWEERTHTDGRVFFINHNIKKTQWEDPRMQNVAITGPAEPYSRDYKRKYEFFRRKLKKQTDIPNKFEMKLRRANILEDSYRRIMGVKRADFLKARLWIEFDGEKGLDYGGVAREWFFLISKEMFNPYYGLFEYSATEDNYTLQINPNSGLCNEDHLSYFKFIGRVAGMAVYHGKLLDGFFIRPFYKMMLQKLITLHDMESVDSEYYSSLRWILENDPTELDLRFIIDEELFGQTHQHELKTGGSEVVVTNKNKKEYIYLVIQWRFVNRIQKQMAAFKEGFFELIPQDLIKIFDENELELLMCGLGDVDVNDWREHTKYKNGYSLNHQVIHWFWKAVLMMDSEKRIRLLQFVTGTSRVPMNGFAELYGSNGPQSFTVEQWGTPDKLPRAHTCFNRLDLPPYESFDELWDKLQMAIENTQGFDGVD

The target of the assay is Neural precursor cell-expressed developmentally downregulated gene 4 (rat (endogenous in HAPI)) (UniProt Q62940). As to the kind of experiment: co-IP.

B1: Synaptosome associated protein 23 (protein, UniProt O70377 1-210)
chain: MDDLSPEEIQLRAHQVTDESLESTRRILGLAIESQDAGIKTITMLDEQGEQLNRIEEGMDQINKDMREAEKTLTELNKCCGLCVCPCNRTKNFESGKNYKATWGDGGDSSPSNVVSKQPSRITNGQPQQTTGAASGGYIKRITNDAREDEMEENLTQVGSILGNLKNMALDMGNEIDAQNQQIQKITEKADTNKNRIDIANTRAKKLIDS
With B1, the binding entry is given as “binds”.

For the origin of these results see paper PMC7724852.
